Assay: Melamine formaldehyde PMC leakage
Conditions: not given

| Structure (SMILES) | Melamine formaldehyde PMC leakage (Comment Code J) |
| --- | --- |
| O=C(/C=C/c1ccccc1)OCc1ccccc1 [Material 650] | J (Melamine formaldehyde PMC leakage less than or equal to 5%) |
| C=CCOC(=O)COCCC(C)C [Material 748] | J (Melamine formaldehyde PMC leakage less than or equal to 5%) |
| CC(C)=CCCC1=CCC(C)(C=O)CC1 (stereo not drawn) [Material 727] | J (Melamine formaldehyde PMC leakage less than or equal to 5%) |
| CC(C)(C)c1ccc2c(c1)OCC(=O)CO2 [Material 1085] | J (Melamine formaldehyde PMC leakage less than or equal to 5%) |
| CCC(C)(O)CCc1ccccc1 (stereo not drawn) [Material 731] | J (Melamine formaldehyde PMC leakage less than or equal to 5%) |
| N#CC(=C1CCCCC1)c1ccccc1 [Material 945] | J (Melamine formaldehyde PMC leakage less than or equal to 5%) |
| COc1ccc(CCC(C)=O)cc1 [Material 803] | J (Melamine formaldehyde PMC leakage less than or equal to 5%) |
| COC(Cc1ccccc1)OC [Material 627] | J (Melamine formaldehyde PMC leakage less than or equal to 5%) |
| CC1(C)CCC[C@@]2(C)[C@H]1CC[C@]13CO[C@](C)(CC[C@@H]12)O3 [Material 678] | J (Melamine formaldehyde PMC leakage less than or equal to 5%) |
| O=C(c1ccccc1)C(O)c1ccccc1 (stereo not drawn) [Material 923] | J (Melamine formaldehyde PMC leakage less than or equal to 5%) |
| CC1=CCCC2(C)CCC(C(C)(C)O)CC12 (stereo not drawn) [Material 775] | J (Melamine formaldehyde PMC leakage less than or equal to 5%) |
| CCCCCCC[C@H]1CCC(=O)O1 [Material 885] | J (Melamine formaldehyde PMC leakage less than or equal to 5%) |
| CCCCCCCC1CCCO1 (stereo not drawn) [Material 852] | J (Melamine formaldehyde PMC leakage less than or equal to 5%) |
| CC(OC(C)(C)COC(=O)C1CC1)C1CCCC(C)(C)C1 (stereo not drawn) [Material 1032] | J (Melamine formaldehyde PMC leakage less than or equal to 5%) |
| CC1=CC2C(CC1)C(C)=CCC2C(C)C (stereo not drawn) [Material 717] | J (Melamine formaldehyde PMC leakage less than or equal to 5%) |
| CC1(O)CCC2=C(CCCC2(C)C)C1 (stereo not drawn) [Material 675] | J (Melamine formaldehyde PMC leakage less than or equal to 5%) |
| CC(=O)O[C@]1(C)CC[C@@]23C[C@@H]1C(C)(C)[C@@H]2CC[C@H]3C [Material 567] | J (Melamine formaldehyde PMC leakage less than or equal to 5%) |
| CC1CCC2C(C)(C)C3CC12CC1OC13C (stereo not drawn) [Material 715] | J (Melamine formaldehyde PMC leakage less than or equal to 5%) |
| CC1=CCCC(C)=CCC(C)(C)C=CC1 [Material 706] | J (Melamine formaldehyde PMC leakage less than or equal to 5%) |
| CC(=O)c1cc2c(cc1C)C(C)(C)C(C)CC2(C)C (stereo not drawn) [Material 776] | J (Melamine formaldehyde PMC leakage less than or equal to 5%) |
| CC(C)c1ccc(CCC=O)cc1 [Material 826] | J (Melamine formaldehyde PMC leakage less than or equal to 5%) |
| CC1=C2C(CC1)C(C)CCC1C2C1(C)C (stereo not drawn) [Material 708] | J (Melamine formaldehyde PMC leakage less than or equal to 5%) |
| C=CCCC(=O)C1=CCCC2(CCCC2)C1 [Material 1038] | J (Melamine formaldehyde PMC leakage less than or equal to 5%) |
| CC(C)OCCc1ccccc1 [Material 950] | J (Melamine formaldehyde PMC leakage less than or equal to 5%) |
| CC1=CCOC(c2ccccc2)C1 (stereo not drawn) [Material 1016] | J (Melamine formaldehyde PMC leakage less than or equal to 5%) |

Same assay, conditions: class code letter within Comment Code

| Structure (SMILES) | Melamine formaldehyde PMC leakage (Comment Code J) |
| --- | --- |
| CCCCCC=CCC=CCCCCCCCC(=O)OC [Material 105] | J (Melamine formaldehyde PMC leakage less than or equal to 5%) |
| CC1CCC(C(C)C)C(=O)C1 (stereo not drawn) [Material 208] | J (Melamine formaldehyde PMC leakage less than or equal to 5%) |
| CC1CC=CCCCCCCCC(=O)OCC1 (stereo not drawn) [Material 52] | J (Melamine formaldehyde PMC leakage less than or equal to 5%) |
| C=CC(C)(CCC=C(C)C)OC(=O)C(C)C (stereo not drawn) [Material 149] | J (Melamine formaldehyde PMC leakage less than or equal to 5%) |
| C=CC1(C)CCC(C(C)(C)O)CC1C(=C)C (stereo not drawn) [Material 414] | J (Melamine formaldehyde PMC leakage less than or equal to 5%) |
| C=CC(C)(CCC=C(C)C)OC(=O)CCCCCCC (stereo not drawn) [Material 148] | J (Melamine formaldehyde PMC leakage less than or equal to 5%) |
| O=C1CCCCCCCCCCCCCC1 [Material 480] | J (Melamine formaldehyde PMC leakage less than or equal to 5%) |
| C=CCc1ccc(OC(C)=O)c(OC)c1 [Material 374] | J (Melamine formaldehyde PMC leakage less than or equal to 5%) |
| CCCCCCCCCCCCCCCC(=O)OC [Material 109] | J (Melamine formaldehyde PMC leakage less than or equal to 5%) |
| COC1(OC)CCCCCCCCCCC1 [Material 10] | J (Melamine formaldehyde PMC leakage less than or equal to 5%) |
| C=CCCCCCCCCO [Material 470] | J (Melamine formaldehyde PMC leakage less than or equal to 5%) |
| CC1=CC2CC(C=O)C1CC2C(C)C (stereo not drawn) [Material 142] | J (Melamine formaldehyde PMC leakage less than or equal to 5%) |
| CC(C=O)Cc1ccc(C(C)C)cc1 (stereo not drawn) [Material 478] | J (Melamine formaldehyde PMC leakage less than or equal to 5%) |
| CC(C)=CCCC(C)=CC1OCC(C)O1 (stereo not drawn) [Material 519] | J (Melamine formaldehyde PMC leakage less than or equal to 5%) |
| COC1CCCCCCCCCCC1 [Material 9] | J (Melamine formaldehyde PMC leakage less than or equal to 5%) |
| C=CCCC(=O)C1CCCC(C)(C)C1 (stereo not drawn) [Material 334] | J (Melamine formaldehyde PMC leakage less than or equal to 5%) |
| CCC(=O)OC1CC2C3C=CCC3C1C2(C)C (stereo not drawn) [Material 343] | J (Melamine formaldehyde PMC leakage less than or equal to 5%) |
| CCOC(=O)C1CCC(C(=O)OCC)CC1 (stereo not drawn) [Material 347] | J (Melamine formaldehyde PMC leakage less than or equal to 5%) |
| CCCCCCCCC(C)C=O (stereo not drawn) [Material 92] | J (Melamine formaldehyde PMC leakage less than or equal to 5%) |
| CCCCCCCCCCCC=O [Material 178] | J (Melamine formaldehyde PMC leakage less than or equal to 5%) |
| CCOC(OCC)c1ccc2c(c1)OCO2 [Material 286] | J (Melamine formaldehyde PMC leakage less than or equal to 5%) |
| CCOC(C)OCCc1ccccc1 (stereo not drawn) [Material 415] | J (Melamine formaldehyde PMC leakage less than or equal to 5%) |
| CC1=CCC(C=CC(C)C(C)O)C1(C)C (stereo not drawn) [Material 416] | J (Melamine formaldehyde PMC leakage less than or equal to 5%) |
| CC1COC(C)(c2ccc3c(c2)C(C)(C)CCC3(C)C)O1 (stereo not drawn) [Material 2] | J (Melamine formaldehyde PMC leakage less than or equal to 5%) |

Same assay, conditions: code J of the Comment Code column, Table 1

| Structure (SMILES) | Comment Code: Melamine formaldehyde PMC leakage |
| --- | --- |
| COC(=O)c1ccccc1N=CC(C)Cc1ccc(C(C)(C)C)cc1 (stereo not drawn) [Material 1121] | J (Melamine formaldehyde PMC leakage less than or equal to 5%) |
| C=C1CCC2OC2(C)CCC2C1CC2(C)C (stereo not drawn) [Material 1148] | J (Melamine formaldehyde PMC leakage less than or equal to 5%) |
| C1CC2C3CC(C2C1)C1(CCCO1)C3 (stereo not drawn) [Material 1137] | J (Melamine formaldehyde PMC leakage less than or equal to 5%) |

Same assay, conditions: code letter J

| Structure (SMILES) | Comment Code: Melamine formaldehyde PMC leakage |
| --- | --- |
| CC=CC(=O)OCCCCCC [Material 55] | J (Melamine formaldehyde PMC leakage less than or equal to 5%) |
| CCCCOC(=O)c1ccccc1C(=O)OCCCC [Material 455] | J (Melamine formaldehyde PMC leakage less than or equal to 5%) |
| C=C1CCC2OC2(C)CCC2C1CC2(C)C (stereo not drawn) [Material 1148] | J (Melamine formaldehyde PMC leakage less than or equal to 5%) |
| COC(Cc1ccccc1)OC [Material 627] | J (Melamine formaldehyde PMC leakage less than or equal to 5%) |
| CC1(C)CCC[C@@]2(C)[C@H]1CC[C@]13CO[C@](C)(CC[C@@H]12)O3 [Material 678] | J (Melamine formaldehyde PMC leakage less than or equal to 5%) |
| CCC(=O)N(CC)c1cccc(C)c1 [Material 755] | J (Melamine formaldehyde PMC leakage less than or equal to 5%) |
| CC1=CCCC2(C)CCC(C(C)(C)O)CC12 (stereo not drawn) [Material 775] | J (Melamine formaldehyde PMC leakage less than or equal to 5%) |
| CC(=O)O[C@]1(C)CC[C@@]23C[C@@H]1C(C)(C)[C@@H]2CC[C@H]3C [Material 567] | J (Melamine formaldehyde PMC leakage less than or equal to 5%) |
| C=CC(C)(CCC=C(C)C)OC(=O)CCC (stereo not drawn) [Material 151] | J (Melamine formaldehyde PMC leakage less than or equal to 5%) |
| CCCCCCOC(=O)C(C)CC (stereo not drawn) [Material 273] | J (Melamine formaldehyde PMC leakage less than or equal to 5%) |
| CCC(=O)OC1CC2C3C=CCC3C1C2(C)C (stereo not drawn) [Material 343] | J (Melamine formaldehyde PMC leakage less than or equal to 5%) |
| CC(C)C(=O)OCc1ccccc1 [Material 647] | J (Melamine formaldehyde PMC leakage less than or equal to 5%) |
| C1CC2C3CC(C2C1)C1(CCCO1)C3 (stereo not drawn) [Material 1137] | J (Melamine formaldehyde PMC leakage less than or equal to 5%) |
| CC1=C2C(CC1)C(C)CCC1C2C1(C)C (stereo not drawn) [Material 708] | J (Melamine formaldehyde PMC leakage less than or equal to 5%) |
| C=CCCC(=O)C1=CCCC2(CCCC2)C1 [Material 1038] | J (Melamine formaldehyde PMC leakage less than or equal to 5%) |
| C=CCOC(=O)COC1CCCCC1 [Material 918] | J (Melamine formaldehyde PMC leakage less than or equal to 5%) |
| CC1COC(C)(c2ccc3c(c2)C(C)(C)CCC3(C)C)O1 (stereo not drawn) [Material 2] | J (Melamine formaldehyde PMC leakage less than or equal to 5%) |

Reference: patent US20160090556A1, “PRODUCTS COMPRISING MALODOR REDUCTION MATERIALS” (The Procter & Gamble Company, priority 2014, published 2016)
